The list shows a part of the results. These are raw signals, not scaled to a control.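 Primary screen: polymyxin B was added at a level permeabilizing Salmonella outer membranes while sparing inner membranes. DMSO wells, both with and without polymyxin B, established maximum growth. Plate-to-plate variation meant each plate was ranked on its own, and the lowest-OD600 compounds were selected as hits.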
Tested on: Salmonella enterica serovar Typhimurium SL1344
Assay: bacterial growth OD600 after 18 h with compound and polymyxin B; higher = more bacterial growth (less inhibition)
Conditions: 50 µM, Mueller-Hinton broth

O=S(=O)(NCc1cccnc1Oc1ccccc1)c1ccccc1F
bacterial growth OD600 (polymyxin B 1 µg/mL): 0.914

CCn1cc(CN2CCC(n3nccc3NC(=O)c3ccc4c(c3)OCO4)CC2)c(C)n1
bacterial growth OD600 (polymyxin B 1 µg/mL): 0.863

CC1CN(Cc2cnn(-c3ccccc3)c2)Cc2ccccc2O1 (stereo not given)
bacterial growth OD600 (polymyxin B 0.75 µg/mL): 0.773

COc1cccc(-c2ccccc2NC(=O)C2CCN(CC=C(C)C)CC2)c1
bacterial growth OD600 (polymyxin B 1 µg/mL): 1.01

Cc1noc(C)c1CCCNC(=O)c1ccc(N2CCCC(CO)C2)nc1 (stereo not given)
bacterial growth OD600 (polymyxin B 0.75 µg/mL): 0.796

O=C1NCCN(CCCc2ccccc2)C1CC(=O)N1CCCN(c2ncccn2)CC1 (stereo not given)
bacterial growth OD600 (polymyxin B 0.75 µg/mL): 0.865

COC(=O)[C@]1(C)C[C@H](C(=O)NCC(C)(C)CO)[C@H](c2ccc(Cl)cc2)N1C
bacterial growth OD600 (polymyxin B 0.75 µg/mL): 0.82

Cc1nn(C)cc1CN1CCN(Cc2ccccc2F)C(CCO)C1 (stereo not given)
bacterial growth OD600 (polymyxin B 1 µg/mL): 0.907

COCC(=O)Nc1cc(C(=O)N(C)CCc2cnn(C)c2)c2c(c1)ncn2Cc1ccc(F)cc1
bacterial growth OD600 (polymyxin B 0.75 µg/mL): 0.82

COc1ccc(CC2(CCC(=O)N3CC4(C)CC3CC(C)(C)C4)CCC(=O)N2)c2ccccc12 (stereo not given)
bacterial growth OD600 (polymyxin B 0.75 µg/mL): 0.005

CC(C)c1noc(-c2ccc(NCc3cn4ccsc4n3)nc2)n1
bacterial growth OD600 (polymyxin B 0.75 µg/mL): 0.867

CCCN1CCC(C(=O)Nc2ccc(Oc3ccccc3F)cc2)CC1
bacterial growth OD600 (polymyxin B 1 µg/mL): 1.06

COCC(=O)Nc1cc(C(=O)N2CCC(c3ccccc3)CC2)cc2ncn(CCc3ccccc3)c12
bacterial growth OD600 (polymyxin B 0.75 µg/mL): 1.04

CC1(C)Cc2c(cnn2-c2cccc(F)c2)C(NC(=O)CN2CCCCC2)C1 (stereo not given)
bacterial growth OD600 (polymyxin B 0.75 µg/mL): 0.94

O=C(NC1CCCN(CC2CCCCC2)C1)c1ccc2[nH]ccc2c1 (stereo not given)
bacterial growth OD600 (polymyxin B 0.75 µg/mL): 0.791

C=CCN(CC=C)C(=O)CC1(c2ccccc2OC)CC(=O)N(C2CCCC2)C1=O (stereo not given)
bacterial growth OD600 (polymyxin B 0.75 µg/mL): 0.005

C=C(C)CN(CC)Cc1c(C(=O)N2CCc3ccccc3C2)nc2ccc(Cl)cn12
bacterial growth OD600 (polymyxin B 0.75 µg/mL): -0.004

CC(C)CNC1CCN(c2ccc(C(=O)NC(C)c3ccccc3)cc2)CC1 (stereo not given)
bacterial growth OD600 (polymyxin B 0.75 µg/mL): 0.788

COc1cc(OC)c(OC)cc1CN(CC1CCN(C2CCCC2)CC1)CC1CCCO1 (stereo not given)
bacterial growth OD600 (polymyxin B 1 µg/mL): 0.687

COc1cccc(CCC(=O)N2CC(=O)N(c3ccccc3SC)C(C)C2)c1 (stereo not given)
bacterial growth OD600 (polymyxin B 0.75 µg/mL): 0.81

O=C(c1ccc(NCC2CCCCO2)nc1)N1CCC(CCn2cccn2)CC1 (stereo not given)
bacterial growth OD600 (polymyxin B 1 µg/mL): 0.969

Cc1cnc(SCCN2CCOCC2)nc1C1CCCN(C(=O)Cc2c(F)ccc(F)c2F)C1 (stereo not given)
bacterial growth OD600 (polymyxin B 0.75 µg/mL): 0.968

Cc1cc(-c2ccnc(-n3ncc(C(=O)N(CCO)Cc4ccccc4)c3C3CC3)n2)c(C)s1
bacterial growth OD600 (polymyxin B 0.75 µg/mL): 0.858

Cc1c(CC(=O)NC2CCOCC2)c2c(n1Cc1ccccc1)CCCC2=O
bacterial growth OD600 (polymyxin B 1 µg/mL): 1.08

CCNC(=O)N1CCC(C2CCN(c3ncccn3)CC2)C1 (stereo not given)
bacterial growth OD600 (polymyxin B 0.75 µg/mL): 0.85

C/C(=C\c1ccccc1)CN1CCC(n2nccc2NC(=O)c2cccnc2)CC1
bacterial growth OD600 (polymyxin B 0.75 µg/mL): 0.901

Cc1cc(C)c(C(=O)N2CCc3onc(-c4ccc5c(c4)OCO5)c3C2)o1
bacterial growth OD600 (polymyxin B 0.75 µg/mL): 0.032

COc1cc(CN2CCC3(CC2)CC3C(=O)N2CCCN(C)CC2)cc(OC)c1 (stereo not given)
bacterial growth OD600 (polymyxin B 0.75 µg/mL): 0.957

CSCCC(=O)NCC1Cc2cc(C)cc(-c3ccccn3)c2O1 (stereo not given)
bacterial growth OD600 (polymyxin B 0.75 µg/mL): 0.84

O=C1N(C2Cc3ccccc3C2)C[C@@H]2C[C@@H](c3cccc4c3OCO4)N3CCC[C@@]123
bacterial growth OD600 (polymyxin B 1 µg/mL): 0.017

Source: the supplement of paper PMC12889115
